B1: Dynamin-1 (protein, UniProt P39053 1-867)
chain: MGNRGMEDLIPLVNRLQDAFSAIGQNADLDLPQIAVVGGQSAGKSSVLENFVGRDFLPRGSGIVTRRPLVLQLVNSTTEYAEFLHCKGKKFTDFEEVRLEIEAETDRVTGTNKGISPVPINLRVYSPHVLNLTLVDLPGMTKVPVGDQPPDIEFQIRDMLMQFVTKENCLILAVSPANSDLANSDALKIAKEVDPQGQRTIGVITKLDLMDEGTDARDVLENKLLPLRRGYIGVVNRSQKDIDGKKDITAALAAERKFFLSHPSYRHLADRMGTPYLQKVLNQQLTNHIRDTLPGLRNKLQSQLLSIEKEVDEYKNFRPDDPARKTKALLQMVQQFAVDFEKRIEGSGDQIDTYELSGGARINRIFHERFPFELVKMEFDEKELRREISYAIKNIHGIRTGLFTPDMAFETIVKKQVKKIREPCLKCVDMVISELISTVRQCTKKLQQYPRLREEMERIVTTHIREREGRTKEQVMLLIDIELAYMNTNHEDFIGFANAQQRSNQMNKKKTSGNQDEILVIRKGWLTINNIGIMKGGSKEYWFVLTAENLSWYKDDEEKEKKYMLSVDNLKLRDVEKGFMSSKHIFALFNTEQRNVYKDYRQLELACETQEEVDSWKASFLRAGVYPERVGDKEKASETEENGSDSFMHSMDPQLERQVETIRNLVDSYMAIVNKTVRDLMPKTIMHLMINNTKEFIFSELLANLYSCGDQNTLMEESAEQAQRRDEMLRMYHALKEALSIIGDINTTTVSTPMPPPVDDSWLQVQSVPAGRRSPTSSPTPQRRAPAVPPARPGSRGPAPGPPPAGSALGGAPPVPSRPGASPDPFGPPPQVPSRPNRAPPGVPSLGAWRLNSPQGKHENRAGKARL
B2: Neurofilament medium polypeptide (protein, UniProt P08553 1-848)
chain: MSYTLDSLGNPSAYRRVTETRSSFSRVSGSPSSGFRSQSWSRGSPSTVSSSYKRSALAPRLAYSSAMLSSAESSLDFSQSSSLLNGGSGGDYKLSRSNEKEQLQGLNDRFAGYIEKVHYLEQQNKEIEAEIQALRQKQASHAQLGDAYDQEIRELRATLEMVNHEKAQVQLDSDHLEEDIHRLKERFEEEARLRDDTEAAIRALRKDIEESSMVKVELDKKVQSLQDEVAFLRSNHEEEVADLLAQIQASHITVERKDYLKTDISTALKEIRSQLECHSDQNMHQAEEWFKCRYAKLTEAAEQNKEAIRSAKEEIAEYRRQLQSKSIELESVRGTKESLERQLSDIEERHNHDLSSYQDTIQQLENELRGTKWEMARHLREYQDLLNVKMALDIEIAAYRKLLEGEETRFSTFSGSITGPLYTHRQPSVTISSKIQKTKVEAPKLKVQHKFVEEIIEETKVEDEKSEMEETLTAIAEELAASAKEEKEEAEEKEEEPEAEKSPVKSPEAKEEEEEGEKEEEEEGQEEEEEEDEGVKSDQAEEGGSEKEGSSEKDEGEQEEEEGETEAEGEGEEAEAKEEKKIEGKVEEVAVKEEIKVEKPEKAKSPMPKSPVEEVKPKPEAKAGKGEQKEEEKVEEEKKEVTKESPKEEKVEKKEEKPKDVADKKKAESPVKEKAVEEVITISKSVKVSLEKDTKEEKPQPQEKVKEKAEEEGGSEEEGSDRSPQESKKEDIAINGEVEGKEEEEQETQEKGSGREEEKGVVTNGLDVSPAEEKKGEDSSDDKVVVTKKVEKITSEGGDGATKYITKSVTVTQKVEEHEETFEEKLVSTKKVEKVTSHAIVKEVTQGD
B3: Neurofilament light polypeptide (protein, UniProt P08551 1-543)
chain: MSSFGYDPYFSTSYKRRYVETPRVHISSVRSGYSTARSAYSSYSAPVSSSLSVRRSYSSSSGSLMPSLENLDLSQVAAISNDLKSIRTQEKAQLQDLNDRFASFIERVHELEQQNKVLEAELLVLRQKHSEPSRFRALYEQEIRDLRLAAEDATNEKQALQGEREGLEETLRNLQARYEEEVLSREDAEGRLMEARKGADEAALARAELEKRIDSLMDEIAFLKKVHEEEIAELQAQIQYAQISVEMDVSSKPDLSAALKDIRAQYEKLAAKNMQNAEEWFKSRFTVLTESAAKNTDAVRAAKDEVSESRRLLKAKTLEIEACRGMNEALEKQLQELEDKQNADISAMQDTINKLENELRSTKSEMARYLKEYQDLLNVKMALDIEIAAYRKLLEGEETRLSFTSVGSITSGYSQSSQVFGRSAYSGLQSSSYLMSARSFPAYYTSHVQEEQTEVEETIEATKAEEAKDEPPSEGEAEEEEKEKEEGEEEEGAEEEEAAKDESEDTKEEEEGGEGEEEDTKESEEEEKKEESAGEEQVAKKKD
B4: Alpha-internexin (protein, UniProt P46660 1-501)
chain: MSFGSEHYLCSASSYRKVFGDSSRLSARLSGPGGSGSFRSQSLSRSNVASTAACSSASSLGLGLAYRRLPASDGLDLSQAAARTNEYKIIRTNEKEQLQGLNDRFAVFIEKVHQLETQNRALEAELAALRQRHAEPSRVGELFQRELRELRAQLEEASSARAQALLERDGLAEEVQRLRARCEEESRGREGAERALKAQQRDVDGATLARLDLEKKVESLLDELAFVRQVHDEEVAELLATLQASSQAAAEVDVAVAKPDLTSALREIRAQYESLAAKNLQSAEEWYKSKFANLNEQAARSTEAIRASREEIHEYRRQLQARTIEIEGLRGANESLERQILELEERHSAEVAGYQDSIGQLESDLRNTKSEMARHLREYQDLLNVKMALDIEIAAYRKLLEGEETRFSTGGLSISGLNPLPNPSYLLPPRILSSTASKVSSAGLSLKKEEEEEEEEASKEVSKKTSKVGEGFEETLGEAVISTKKTGKSATEESTSSSQKM

Amino acid sequences for entries named in this document (tags omitted). Residues count along the entry.
UniProt O35625: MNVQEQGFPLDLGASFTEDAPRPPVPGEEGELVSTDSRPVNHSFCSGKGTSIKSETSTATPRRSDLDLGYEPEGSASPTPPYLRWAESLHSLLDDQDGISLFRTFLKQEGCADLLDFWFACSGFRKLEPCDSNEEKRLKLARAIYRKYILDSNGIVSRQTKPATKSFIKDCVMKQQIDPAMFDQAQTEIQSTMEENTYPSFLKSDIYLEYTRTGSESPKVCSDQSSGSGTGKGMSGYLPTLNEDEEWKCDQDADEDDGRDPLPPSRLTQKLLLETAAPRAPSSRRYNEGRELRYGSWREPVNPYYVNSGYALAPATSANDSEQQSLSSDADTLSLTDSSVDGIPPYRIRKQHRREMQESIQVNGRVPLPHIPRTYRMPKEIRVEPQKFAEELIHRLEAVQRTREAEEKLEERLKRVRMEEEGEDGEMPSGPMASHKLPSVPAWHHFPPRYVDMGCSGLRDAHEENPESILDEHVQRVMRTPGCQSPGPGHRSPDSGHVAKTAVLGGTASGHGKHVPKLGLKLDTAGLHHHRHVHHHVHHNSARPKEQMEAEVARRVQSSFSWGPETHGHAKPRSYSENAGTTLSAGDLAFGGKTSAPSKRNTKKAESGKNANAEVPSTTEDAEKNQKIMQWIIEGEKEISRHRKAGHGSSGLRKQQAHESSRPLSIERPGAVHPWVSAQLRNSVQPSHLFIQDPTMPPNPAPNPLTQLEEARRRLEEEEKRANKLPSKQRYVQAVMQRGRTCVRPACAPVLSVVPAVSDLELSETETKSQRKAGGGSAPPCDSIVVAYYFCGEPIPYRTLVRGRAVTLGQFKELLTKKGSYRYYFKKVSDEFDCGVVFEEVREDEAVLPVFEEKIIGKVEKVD
UniProt P28652: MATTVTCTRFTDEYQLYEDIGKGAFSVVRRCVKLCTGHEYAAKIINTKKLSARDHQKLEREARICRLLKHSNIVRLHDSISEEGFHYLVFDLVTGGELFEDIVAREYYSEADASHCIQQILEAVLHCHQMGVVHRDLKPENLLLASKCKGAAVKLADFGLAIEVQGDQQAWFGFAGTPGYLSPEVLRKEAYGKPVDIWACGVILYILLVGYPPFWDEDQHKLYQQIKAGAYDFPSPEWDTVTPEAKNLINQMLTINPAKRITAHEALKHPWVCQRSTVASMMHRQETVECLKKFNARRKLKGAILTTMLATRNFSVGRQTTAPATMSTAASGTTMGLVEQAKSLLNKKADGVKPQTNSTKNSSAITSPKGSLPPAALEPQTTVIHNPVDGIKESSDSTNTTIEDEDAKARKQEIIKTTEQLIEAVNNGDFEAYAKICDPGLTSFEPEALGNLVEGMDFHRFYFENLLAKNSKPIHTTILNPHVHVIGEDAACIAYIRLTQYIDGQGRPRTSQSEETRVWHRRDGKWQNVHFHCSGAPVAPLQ
UniProt P17156: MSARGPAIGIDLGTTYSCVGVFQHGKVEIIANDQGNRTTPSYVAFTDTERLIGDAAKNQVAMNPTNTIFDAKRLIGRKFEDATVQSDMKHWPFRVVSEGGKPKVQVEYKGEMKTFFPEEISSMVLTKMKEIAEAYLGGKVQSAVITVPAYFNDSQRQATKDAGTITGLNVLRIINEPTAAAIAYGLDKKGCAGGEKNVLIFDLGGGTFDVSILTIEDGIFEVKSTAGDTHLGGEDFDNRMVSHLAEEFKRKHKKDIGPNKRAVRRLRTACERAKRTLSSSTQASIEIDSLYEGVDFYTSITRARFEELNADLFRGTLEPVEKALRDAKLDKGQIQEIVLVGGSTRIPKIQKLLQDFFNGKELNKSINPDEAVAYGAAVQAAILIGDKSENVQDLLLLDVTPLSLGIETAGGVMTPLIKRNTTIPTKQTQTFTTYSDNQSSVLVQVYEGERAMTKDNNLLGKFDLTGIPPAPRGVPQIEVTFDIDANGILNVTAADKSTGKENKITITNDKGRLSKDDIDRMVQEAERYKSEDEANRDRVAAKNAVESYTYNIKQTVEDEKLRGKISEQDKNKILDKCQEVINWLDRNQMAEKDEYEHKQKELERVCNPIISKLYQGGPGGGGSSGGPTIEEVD
UniProt Q6Y685: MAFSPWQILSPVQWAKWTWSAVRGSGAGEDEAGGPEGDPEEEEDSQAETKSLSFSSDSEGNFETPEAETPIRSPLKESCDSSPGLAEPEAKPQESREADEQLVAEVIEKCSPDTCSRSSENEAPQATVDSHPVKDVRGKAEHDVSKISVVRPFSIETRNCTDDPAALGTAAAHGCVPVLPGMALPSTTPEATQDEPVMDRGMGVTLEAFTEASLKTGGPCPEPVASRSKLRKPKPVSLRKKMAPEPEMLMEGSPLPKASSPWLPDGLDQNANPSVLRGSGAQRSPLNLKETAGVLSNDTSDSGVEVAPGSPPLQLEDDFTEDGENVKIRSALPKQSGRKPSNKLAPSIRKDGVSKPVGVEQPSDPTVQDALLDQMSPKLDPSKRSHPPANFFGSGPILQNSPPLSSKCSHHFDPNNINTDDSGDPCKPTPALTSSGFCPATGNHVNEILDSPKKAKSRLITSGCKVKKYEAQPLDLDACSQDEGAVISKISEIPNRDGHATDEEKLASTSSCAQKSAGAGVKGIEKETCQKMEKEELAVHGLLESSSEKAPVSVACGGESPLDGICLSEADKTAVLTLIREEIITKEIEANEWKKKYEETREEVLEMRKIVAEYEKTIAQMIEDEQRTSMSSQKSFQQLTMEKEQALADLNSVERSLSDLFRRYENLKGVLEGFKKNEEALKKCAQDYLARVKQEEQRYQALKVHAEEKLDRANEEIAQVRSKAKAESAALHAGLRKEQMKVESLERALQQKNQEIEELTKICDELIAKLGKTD
UniProt P16627: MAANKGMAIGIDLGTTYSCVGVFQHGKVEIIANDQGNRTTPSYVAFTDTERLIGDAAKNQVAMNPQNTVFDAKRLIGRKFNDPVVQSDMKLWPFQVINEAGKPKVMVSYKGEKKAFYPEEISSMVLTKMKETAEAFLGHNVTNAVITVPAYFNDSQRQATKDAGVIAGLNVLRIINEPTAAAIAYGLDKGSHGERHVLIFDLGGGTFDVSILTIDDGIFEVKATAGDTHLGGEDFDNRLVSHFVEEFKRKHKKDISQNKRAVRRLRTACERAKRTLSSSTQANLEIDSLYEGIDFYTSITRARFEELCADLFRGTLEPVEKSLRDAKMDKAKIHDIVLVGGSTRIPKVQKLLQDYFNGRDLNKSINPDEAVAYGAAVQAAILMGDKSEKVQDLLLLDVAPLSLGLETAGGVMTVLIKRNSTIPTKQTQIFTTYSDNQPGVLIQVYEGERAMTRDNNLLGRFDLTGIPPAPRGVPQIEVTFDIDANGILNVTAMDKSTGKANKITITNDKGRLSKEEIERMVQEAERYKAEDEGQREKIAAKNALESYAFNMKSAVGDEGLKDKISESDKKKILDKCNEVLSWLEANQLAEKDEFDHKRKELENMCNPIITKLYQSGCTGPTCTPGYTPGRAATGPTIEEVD
UniProt Q7TSJ2: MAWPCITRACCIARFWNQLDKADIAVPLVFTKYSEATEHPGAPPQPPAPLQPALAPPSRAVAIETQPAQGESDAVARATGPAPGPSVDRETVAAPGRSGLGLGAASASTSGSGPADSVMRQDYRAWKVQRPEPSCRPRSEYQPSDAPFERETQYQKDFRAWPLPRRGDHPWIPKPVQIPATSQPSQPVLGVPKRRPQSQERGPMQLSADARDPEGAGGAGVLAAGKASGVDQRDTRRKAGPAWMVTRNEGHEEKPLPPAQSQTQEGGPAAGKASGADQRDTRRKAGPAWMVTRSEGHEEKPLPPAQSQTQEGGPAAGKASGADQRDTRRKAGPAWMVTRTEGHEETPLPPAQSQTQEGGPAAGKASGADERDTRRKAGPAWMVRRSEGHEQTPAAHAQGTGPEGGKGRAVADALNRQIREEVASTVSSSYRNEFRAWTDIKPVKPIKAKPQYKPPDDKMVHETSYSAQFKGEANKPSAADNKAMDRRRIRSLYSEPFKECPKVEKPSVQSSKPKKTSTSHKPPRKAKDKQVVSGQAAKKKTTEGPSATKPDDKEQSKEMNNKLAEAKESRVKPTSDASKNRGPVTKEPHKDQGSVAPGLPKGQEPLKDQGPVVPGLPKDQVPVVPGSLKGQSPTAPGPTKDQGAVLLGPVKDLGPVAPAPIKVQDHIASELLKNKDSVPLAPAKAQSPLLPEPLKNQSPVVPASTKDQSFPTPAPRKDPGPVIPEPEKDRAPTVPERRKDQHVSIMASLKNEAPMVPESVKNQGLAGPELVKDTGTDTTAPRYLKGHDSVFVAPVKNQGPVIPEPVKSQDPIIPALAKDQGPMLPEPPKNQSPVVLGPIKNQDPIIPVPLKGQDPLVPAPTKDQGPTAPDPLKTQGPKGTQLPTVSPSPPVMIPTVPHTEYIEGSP
UniProt Q61699: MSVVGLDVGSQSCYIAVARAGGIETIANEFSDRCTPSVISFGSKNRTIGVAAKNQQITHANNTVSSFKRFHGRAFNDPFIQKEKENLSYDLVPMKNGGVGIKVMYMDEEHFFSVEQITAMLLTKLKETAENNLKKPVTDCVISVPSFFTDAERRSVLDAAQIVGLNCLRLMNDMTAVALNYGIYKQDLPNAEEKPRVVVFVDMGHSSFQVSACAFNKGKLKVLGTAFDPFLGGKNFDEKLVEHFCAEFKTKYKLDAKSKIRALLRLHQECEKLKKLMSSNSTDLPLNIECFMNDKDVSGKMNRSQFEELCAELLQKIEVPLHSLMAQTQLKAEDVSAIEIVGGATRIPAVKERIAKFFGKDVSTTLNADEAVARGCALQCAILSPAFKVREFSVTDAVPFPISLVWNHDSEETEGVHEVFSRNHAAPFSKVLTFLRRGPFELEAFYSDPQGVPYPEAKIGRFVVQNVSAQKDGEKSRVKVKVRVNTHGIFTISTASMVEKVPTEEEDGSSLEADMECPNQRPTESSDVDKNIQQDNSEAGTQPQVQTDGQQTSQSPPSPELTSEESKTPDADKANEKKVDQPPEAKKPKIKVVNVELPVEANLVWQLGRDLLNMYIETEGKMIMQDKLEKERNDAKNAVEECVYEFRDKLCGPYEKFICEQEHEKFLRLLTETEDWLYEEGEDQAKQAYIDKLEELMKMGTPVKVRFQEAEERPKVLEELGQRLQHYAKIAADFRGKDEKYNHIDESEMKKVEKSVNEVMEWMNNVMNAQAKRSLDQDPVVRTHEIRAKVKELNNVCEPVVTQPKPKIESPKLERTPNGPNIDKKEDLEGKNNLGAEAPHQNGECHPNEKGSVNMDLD
UniProt P38647, residues 47-679: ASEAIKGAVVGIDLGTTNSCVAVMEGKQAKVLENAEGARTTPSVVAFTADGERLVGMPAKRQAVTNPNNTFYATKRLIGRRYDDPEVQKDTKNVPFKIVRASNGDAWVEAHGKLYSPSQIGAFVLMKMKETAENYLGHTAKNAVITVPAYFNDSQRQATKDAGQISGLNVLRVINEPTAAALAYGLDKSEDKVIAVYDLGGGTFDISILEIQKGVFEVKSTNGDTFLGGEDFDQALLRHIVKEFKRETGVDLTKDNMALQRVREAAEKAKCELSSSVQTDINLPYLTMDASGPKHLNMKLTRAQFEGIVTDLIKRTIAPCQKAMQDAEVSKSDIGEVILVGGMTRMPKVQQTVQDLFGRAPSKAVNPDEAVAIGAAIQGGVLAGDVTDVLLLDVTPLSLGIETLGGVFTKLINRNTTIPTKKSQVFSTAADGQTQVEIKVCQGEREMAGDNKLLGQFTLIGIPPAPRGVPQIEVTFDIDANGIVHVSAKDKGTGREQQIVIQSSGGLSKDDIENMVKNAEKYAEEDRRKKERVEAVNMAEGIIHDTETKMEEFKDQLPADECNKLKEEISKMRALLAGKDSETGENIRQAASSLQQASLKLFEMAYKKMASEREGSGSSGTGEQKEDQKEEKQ

No constants are given. Whether binding was seen depends on the method and setting. Binding seen in cells or lysates may run through a third protein. A yes stands for co-enrichment or nearness to the bait. Other partners may have been found.

In the assay the target is Axin (mouse (endogenous in mouse brain)) (UniProt O35625). Briefly: affinity purification with mass spectrometry; co-immunoprecipitation with Axin antibody from 2 mg protein of the washed synaptosomal fraction (P2') of whole mouse brain; normal rabbit IgG as control; SDS-PAGE, trypsin digestion, mass spectrometry; unique peptide count >=2 considered positive.
As for “Tyrosine-protein phosphatase non-receptor type 11 (from UniProt P35235 1-593)”, the binding entry is listed as “binds”.

Consider “Calcium/calmodulin-dependent protein kinase type II subunit beta (from UniProt P28652 1-542)”, for which the binding result is on record as “binds”.

Turning to “Heat shock-related 70 kDa protein 2 (from UniProt P17156 1-633)”, the binding entry is recorded as “binds”.

For the molecule “Transforming acidic coiled-coil-containing protein 1 (from UniProt Q6Y685 1-774)”, the binding entry is recorded as “binds”.

With “Heat shock protein 1-like (from UniProt P16627 1-641)”, the binding entry is recorded as “binds”.

For the molecule “Microtubule-associated protein 6 (from UniProt Q7TSJ2 1-906)”, the binding result is “binds”.

Consider Spna2 protein (from UniProt P16546), for which the binding entry is on record as “binds”.

Regarding “Spectrin beta chain, non-erythrocytic 1 (from UniProt Q62261 1-2363)”, the binding entry is “binds”.

For the molecule “Spectrin alpha chain, non-erythrocytic 1 (from UniProt P16546 1-2472)”, the binding result is on record as “binds”.

With “Sodium/potassium-transporting ATPase subunit alpha-2 (from UniProt Q6PIE5 1-1020)”, the binding result is on record as “binds”.

For the molecule “Heat shock protein 105 kDa (from UniProt Q61699 1-858)”, the binding entry is “binds”.

Take “Stress-70 protein, mitochondrial (from UniProt P38647 47-679)”: the binding entry is listed as “binds”.

For the molecule B1, the binding entry is “binds”.

In the case of B2, the binding entry was “binds”.

In the case of B3, the binding entry is reported as “binds”.

Consider B4, for which the binding result was “binds”.

The values are drawn from paper PMC4512687.
